# Data published in publication PMC3590144, “Determination of the Structure of the Catabolic N-Succinylornithine Transaminase (AstC) from Escherichia coli” (PLoS ONE, 2013).
# Amino acid sequences for entries named in this document (tags omitted).
# UniProt P77581: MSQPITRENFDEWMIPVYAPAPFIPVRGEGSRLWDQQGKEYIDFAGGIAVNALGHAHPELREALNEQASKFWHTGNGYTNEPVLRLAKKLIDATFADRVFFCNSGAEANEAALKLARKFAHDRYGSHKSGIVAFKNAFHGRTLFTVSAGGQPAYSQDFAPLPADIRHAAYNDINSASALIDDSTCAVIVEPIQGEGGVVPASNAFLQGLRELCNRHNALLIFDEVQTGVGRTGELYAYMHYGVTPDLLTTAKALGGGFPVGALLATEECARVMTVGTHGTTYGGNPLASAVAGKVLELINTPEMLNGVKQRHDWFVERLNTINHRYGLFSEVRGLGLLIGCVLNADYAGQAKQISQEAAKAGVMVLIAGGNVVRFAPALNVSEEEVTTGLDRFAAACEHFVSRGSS
# These are yes or no findings as the source states them, for the method shown. Some binding calls cover weakened binding; strength is not graded here.
# Target: holo-AstC, N-succinylornithine transaminase from Escherichia coli reconstituted with PLP (E. coli (BL21 DE3)) (UniProt P77581)
# Assay: crystal structure; holo-AstC with PLP bound; space group C2, 4 molecules (two full dimers) in the asymmetric unit, 2.20 Å; grown in 1.17 M sodium malonate pH 7, 0.09 M Tris chloride pH 8.0 at 8 °C; both purified
substance,measurement,value
"holo-AstC, N-succinylornithine transaminase from Escherichia coli reconstituted with PLP (from UniProt P77581 1-406) (enzyme)",binding,binds
